Taken from: PubChem BioAssay AID1224829 (NIAID, 2016)

Aim: 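Secondary check of hits that alter LPS-induced p65 translocation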 (follow-up of hits)
System: mouse RAW264.7 G9 macrophage reporter cells
Reagent: single siRNA against mouse genes, 100 nM
Duration: 2 days of siRNA knock-down, then 40 min of LPS before fixing
Treatment: LPS (Salmonella minnesota R595) at 10 ng/ml
Read-out: 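Imaging of GFP-p65 after 40 min of LPS; nuclear over perinuclear ring intensity ratio, scaled to plate median and non-targeting control wells, given as z-score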
Scale: p65 translocation z-score: higher = more nuclear NF-kappaB p65 after LPS
Call rule: 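An siRNA is called active when the mean z-score of its two replicates is above 2 or below -2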
Meaning of the calls: active = changed p65 translocation (either direction); inactive = no clear change
This is an unselected part of about 3,800 deposited reagents. 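Calls cover raised and lowered translocation; gene median uses one vendor's three siRNAs; qiagen siRNAs acted more weakly than ambion siRNAs.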 Unmarked entries are inactive. The numbers tell different reagents against one gene apart. Further read-outs or replicates are left out here. Reagent sequences are not shown.

Bach1 #1, siRNA vendor or control pool ambion single siRNA
- p65 translocation z-score, replicate mean: 2.88 (active)

Bach1 #2, siRNA vendor or control pool ambion single siRNA
- p65 translocation z-score, replicate mean: -0.372

Bach1 #3, siRNA vendor or control pool ambion single siRNA
- p65 translocation z-score, replicate mean: -1.66

Bach1 #4, siRNA vendor or control pool qiagen single siRNA
- p65 translocation z-score, replicate mean: 3.19 (active)

Bach1 #5, siRNA vendor or control pool qiagen single siRNA
- p65 translocation z-score, replicate mean: 1.63

Bach1 #6, siRNA vendor or control pool qiagen single siRNA
- p65 translocation z-score, replicate mean: -4.57 (active)

Ca9 (carbonic anhydrase 9) #1, siRNA vendor or control pool ambion single siRNA
- p65 translocation z-score, replicate mean: 0.36

Ca9 (carbonic anhydrase 9) #2, siRNA vendor or control pool ambion single siRNA
- p65 translocation z-score, replicate mean: 4.3 (active)

Ca9 (carbonic anhydrase 9) #3, siRNA vendor or control pool ambion single siRNA
- p65 translocation z-score, replicate mean: -1.89

Ca9 (carbonic anhydrase 9) #4, siRNA vendor or control pool qiagen single siRNA
- p65 translocation z-score, replicate mean: 1.13

Ca9 (carbonic anhydrase 9) #5, siRNA vendor or control pool qiagen single siRNA
- p65 translocation z-score, replicate mean: -2.33 (active)

Ca9 (carbonic anhydrase 9) #6, siRNA vendor or control pool qiagen single siRNA
- p65 translocation z-score, replicate mean: -4.81 (active)

Agbl5 (ATP/GTP binding protein-like 5) #1, siRNA vendor or control pool ambion single siRNA
- p65 translocation z-score, replicate mean: 2.65 (active)

Agbl5 (ATP/GTP binding protein-like 5) #2, siRNA vendor or control pool ambion single siRNA
- p65 translocation z-score, replicate mean: -2.52 (active)

Agbl5 (ATP/GTP binding protein-like 5) #3, siRNA vendor or control pool ambion single siRNA
- p65 translocation z-score, replicate mean: -2.62 (active)

Agbl5 (ATP/GTP binding protein-like 5) #4, siRNA vendor or control pool qiagen single siRNA
- p65 translocation z-score, replicate mean: -0.409

Agbl5 (ATP/GTP binding protein-like 5) #5, siRNA vendor or control pool qiagen single siRNA
- p65 translocation z-score, replicate mean: -3.21 (active)

Agbl5 (ATP/GTP binding protein-like 5) #6, siRNA vendor or control pool qiagen single siRNA
- p65 translocation z-score, replicate mean: -5.68 (active)

Syngr1 (synaptogyrin 1) #1, siRNA vendor or control pool ambion single siRNA
- p65 translocation z-score, replicate mean: -3.1 (active)

Syngr1 (synaptogyrin 1) #2, siRNA vendor or control pool ambion single siRNA
- p65 translocation z-score, replicate mean: -0.402

Syngr1 (synaptogyrin 1) #3, siRNA vendor or control pool ambion single siRNA
- p65 translocation z-score, replicate mean: 1.2

Syngr1 (synaptogyrin 1) #4, siRNA vendor or control pool qiagen single siRNA
- p65 translocation z-score, replicate mean: 1.87

Syngr1 (synaptogyrin 1) #5, siRNA vendor or control pool qiagen single siRNA
- p65 translocation z-score, replicate mean: 0.567

Syngr1 (synaptogyrin 1) #6, siRNA vendor or control pool qiagen single siRNA
- p65 translocation z-score, replicate mean: -0.75

Hnrnpa1 (heterogeneous nuclear ribonucleoprotein A1) #1, siRNA vendor or control pool ambion single siRNA
- p65 translocation z-score, replicate mean: -3.18 (active)

Hnrnpa1 (heterogeneous nuclear ribonucleoprotein A1) #2, siRNA vendor or control pool ambion single siRNA
- p65 translocation z-score, replicate mean: 0.641

Hnrnpa1 (heterogeneous nuclear ribonucleoprotein A1) #3, siRNA vendor or control pool ambion single siRNA
- p65 translocation z-score, replicate mean: -2.28 (active)

Hnrnpa1 (heterogeneous nuclear ribonucleoprotein A1) #4, siRNA vendor or control pool qiagen single siRNA
- p65 translocation z-score, replicate mean: 0.861

Hnrnpa1 (heterogeneous nuclear ribonucleoprotein A1) #5, siRNA vendor or control pool qiagen single siRNA
- p65 translocation z-score, replicate mean: -0.215

Hnrnpa1 (heterogeneous nuclear ribonucleoprotein A1) #6, siRNA vendor or control pool qiagen single siRNA
- p65 translocation z-score, replicate mean: 0.0983

Grk5 (G protein-coupled receptor kinase 5) #1, siRNA vendor or control pool ambion single siRNA
- p65 translocation z-score, replicate mean: -1.09

Grk5 (G protein-coupled receptor kinase 5) #2, siRNA vendor or control pool ambion single siRNA
- p65 translocation z-score, replicate mean: -3.41 (active)

Grk5 (G protein-coupled receptor kinase 5) #3, siRNA vendor or control pool ambion single siRNA
- p65 translocation z-score, replicate mean: -1.24

Grk5 (G protein-coupled receptor kinase 5) #4, siRNA vendor or control pool qiagen single siRNA
- p65 translocation z-score, replicate mean: 2.91 (active)

Grk5 (G protein-coupled receptor kinase 5) #5, siRNA vendor or control pool qiagen single siRNA
- p65 translocation z-score, replicate mean: -0.382

Grk5 (G protein-coupled receptor kinase 5) #6, siRNA vendor or control pool qiagen single siRNA
- p65 translocation z-score, replicate mean: 1.5

Ordered by “p65 translocation z-score, replicate mean” (descending): some entries from above
Ca9 (carbonic anhydrase 9) #2, siRNA vendor or control pool ambion single siRNA
- p65 translocation z-score, replicate mean: 4.3 (active)

Ca9 (carbonic anhydrase 9) #4, siRNA vendor or control pool qiagen single siRNA
- p65 translocation z-score, replicate mean: 1.13

Ca9 (carbonic anhydrase 9) #1, siRNA vendor or control pool ambion single siRNA
- p65 translocation z-score, replicate mean: 0.36

Ca9 (carbonic anhydrase 9) #3, siRNA vendor or control pool ambion single siRNA
- p65 translocation z-score, replicate mean: -1.89

Bach1 #6, siRNA vendor or control pool qiagen single siRNA
- p65 translocation z-score, replicate mean: -4.57 (active)
